Laboratory results from PubChem BioAssay AID624405 (Broad Institute, 2012).
Screen size: about 1,900 compounds; about 250 (13%) were called active. Inconclusive results (about 4%) are left out.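 How the source made its calls: active means fitted curve reaches 40% rescue activity at or below the top valid dose, in every test run; inconclusive means test runs disagree, some active and some inactive; inactive means every run misses the threshold or moves the wrong way.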 The list shows a part of the results, in another mix than the full data. Entries with a potency or affinity are not part of this list.

Assay: rescue of simvastatin-induced ATP loss – cell-based, C2C12 myotubes, ATP luminescence, cherry pick, dose response (AID 624405);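 further: myotubes are challenged with simvastatin at 10 µM to lower ATP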
Conditions: 48 h, scaled: DMSO wells 0, geranylgeraniol wells 100; at 19.5 µM (top of the series) unless noted

| Structure (SMILES) | rescue activity (ATP increase) |
| --- | --- |
| C[C@@H]1CN([C@H](C)CO)C(=O)Cc2cc(NS(=O)(=O)c3cn(C)cn3)ccc2O[C@H]1CN(C)Cc1ccc(-c2ccccc2)cc1 | inactive: 27.2% |
| C[C@H](CO)N1C[C@H](C)[C@H](CN(C)Cc2ccc3c(c2)OCO3)Oc2ccc(NC(=O)NC3CCCCC3)cc2C1=O | inactive: 16.7% |
| COc1ccc(NC(=O)Nc2ccc3c(c2)C(=O)N([C@@H](C)CO)C[C@@H](C)[C@@H](CN(C)Cc2ccc(C(F)(F)F)cc2)OCCCC[C@H](C)O3)cc1 | inactive: 12.6% |
| Cc1cccc2cc(COC(=O)c3cccnc3)c(=O)[nH]c12 | inactive: -0.349% |
| Cc1ccc(NS(=O)(=O)c2ccc(C)c(C(=O)N3CCN(C)CC3)c2)cc1 | inactive: 8.73% |
| COC(=O)COc1ccc(S(=O)(=O)Nc2ccccc2SC)cc1 | inactive: 6.82% |
| C[C@H](CO)N1C[C@H](C)[C@H](CN(C)C(=O)Nc2cccc3ccccc23)OCCCC[C@H](C)Oc2ccc(NC(=O)Nc3ccc4c(c3)OCO4)cc2C1=O | inactive: -9.19% |
| Cc1noc(C)c1NC(=O)Nc1ccc2c(c1)C(=O)N([C@@H](C)CO)C[C@H](C)[C@@H](CN(C)S(=O)(=O)c1c(C)noc1C)OCCCC[C@@H](C)O2 | inactive: 10.1% |
| C[C@H](CO)N1C[C@H](C)[C@H](CN(C)C(=O)Nc2ccccc2)Oc2ncc(-c3cc4ccccc4o3)cc2C1=O | inactive: 5.51% [at 21 µM] |
| O=C(O)CCCCCN1C(=O)/C(=C\c2ccc(-c3ccc(Cl)cc3)o2)SC1=S | inactive: 7.3% |
| COc1cc(C)c(Cl)cc1S(=O)(=O)NCCN1CCOCC1 | inactive: 3.52% |
| Cc1ccc(C2C=C(c3ccccc3OC(F)F)Nc3ncnn32)cc1 (stereo not drawn) | inactive: 19.5% |
| O=C(c1ccccc1)c1cccn1CC(=O)N1CCCCCC1 | inactive: 16.6% |
| CCn1c2ccccc2c2cc(N)ccc21 | inactive: 7.12% |
| C[C@@H]1CN([C@@H](C)CO)C(=O)c2cccc(NC(=O)c3ccncc3)c2O[C@@H]1CN(C)S(=O)(=O)c1ccc(Cl)cc1 | inactive: 24.6% |
| C[C@H](CO)N1C[C@H](C)[C@@H](CN(C)S(=O)(=O)c2ccc(Cl)cc2)Oc2c(NC(=O)C3CCCCC3)cccc2C1=O | inactive: 18.1% [at 21 µM] |
| CNC[C@H]1Oc2ccc(NC(=O)c3ccncc3)cc2C(=O)N([C@@H](C)CO)C[C@@H]1C | inactive: 5.21% [at 21 µM] |
| CN1C(=O)c2cc(NS(=O)(=O)c3ccc(Cl)cc3)ccc2OC[C@@H]2O[C@H](CC(=O)N3CCc4ccccc4C3)CC[C@H]21 | inactive: -18.4% |

Shown tab-delimited: 2 of the compounds above
Structure (SMILES)	rescue activity (ATP increase)
C[C@H](CO)N1C[C@H](C)[C@H](CN(C)C(=O)Nc2ccccc2)Oc2ncc(-c3cc4ccccc4o3)cc2C1=O	inactive: 5.51% [at 21 µM]
O=C(O)CCCCCN1C(=O)/C(=C\c2ccc(-c3ccc(Cl)cc3)o2)SC1=S	inactive: 7.3%
